The list shows a part of the results.
Columns and labels:
Test in all cases: log2 fold change, soluble protein after heating vs DMSO (PISA); higher = thermal stabilisation; K562 lysate, 10 uM; active = over 0.2 and 3.5 SD of the protein, either way, in both replicates (recomputed)
nilotinib = compound: Cc1cn(-c2cc(NC(=O)c3ccc(C)c(Nc4nccc(-c5cccnc5)n4)c3)cc(C(F)(F)F)c2)cn1 [nilotinib]
How it was run: (§1)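 Thermal stability, expressed as log-two fold change relative to solvent controls, is given from duplicates. Crude K562 extract in PBS pH 7.4 with 1 mM MgCl2, at 1 mg/mL protein, was treated with 10 μM compound for 30 min and heated in aliquots for 3 min across 48°C-58°C. After pooling, adjustment to 0.5% NP-40 at 4°C and centrifugation at 21,000xg for 90 min, supernatant protein was measured by TMTpro 16plex LC-MS/MS with channel sums equalised.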

By UniProt entry, the sequences of proteins in these tests, tags left out. Where a name states a change or a piece, a line headed by the entry shows the natural chain unless it says otherwise.
UniProt P55265: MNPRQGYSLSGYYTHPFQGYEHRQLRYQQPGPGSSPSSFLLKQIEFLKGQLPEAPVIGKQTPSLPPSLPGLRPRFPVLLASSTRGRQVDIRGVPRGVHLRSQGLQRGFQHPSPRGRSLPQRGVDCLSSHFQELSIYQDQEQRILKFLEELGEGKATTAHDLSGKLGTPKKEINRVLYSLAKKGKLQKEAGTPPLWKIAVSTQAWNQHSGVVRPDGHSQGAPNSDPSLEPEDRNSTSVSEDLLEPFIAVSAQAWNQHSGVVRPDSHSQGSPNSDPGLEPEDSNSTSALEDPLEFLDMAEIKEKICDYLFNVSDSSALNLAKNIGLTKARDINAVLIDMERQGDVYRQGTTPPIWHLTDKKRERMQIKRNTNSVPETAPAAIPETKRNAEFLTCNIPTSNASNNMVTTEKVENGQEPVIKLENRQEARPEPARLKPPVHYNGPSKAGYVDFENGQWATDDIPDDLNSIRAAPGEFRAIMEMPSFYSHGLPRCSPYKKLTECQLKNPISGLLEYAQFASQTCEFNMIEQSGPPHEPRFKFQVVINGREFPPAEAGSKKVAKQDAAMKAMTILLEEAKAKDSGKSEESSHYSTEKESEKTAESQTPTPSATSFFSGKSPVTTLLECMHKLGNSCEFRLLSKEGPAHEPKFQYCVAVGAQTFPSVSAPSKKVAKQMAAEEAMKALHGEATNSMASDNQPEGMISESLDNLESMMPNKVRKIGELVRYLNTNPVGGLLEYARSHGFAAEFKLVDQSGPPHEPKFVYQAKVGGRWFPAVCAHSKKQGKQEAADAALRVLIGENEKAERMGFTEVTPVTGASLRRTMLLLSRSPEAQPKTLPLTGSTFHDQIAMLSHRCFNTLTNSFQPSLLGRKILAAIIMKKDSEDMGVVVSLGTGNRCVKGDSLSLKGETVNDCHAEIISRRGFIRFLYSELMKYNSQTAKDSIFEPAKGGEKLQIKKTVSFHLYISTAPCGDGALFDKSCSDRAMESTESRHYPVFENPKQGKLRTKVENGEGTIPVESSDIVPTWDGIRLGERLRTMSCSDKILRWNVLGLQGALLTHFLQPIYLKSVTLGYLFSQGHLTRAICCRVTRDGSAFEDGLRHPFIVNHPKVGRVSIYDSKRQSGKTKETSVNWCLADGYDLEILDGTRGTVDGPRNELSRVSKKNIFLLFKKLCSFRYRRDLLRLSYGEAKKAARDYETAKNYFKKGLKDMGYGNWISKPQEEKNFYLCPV
UniProt Q96HN2, whole entry, looked up: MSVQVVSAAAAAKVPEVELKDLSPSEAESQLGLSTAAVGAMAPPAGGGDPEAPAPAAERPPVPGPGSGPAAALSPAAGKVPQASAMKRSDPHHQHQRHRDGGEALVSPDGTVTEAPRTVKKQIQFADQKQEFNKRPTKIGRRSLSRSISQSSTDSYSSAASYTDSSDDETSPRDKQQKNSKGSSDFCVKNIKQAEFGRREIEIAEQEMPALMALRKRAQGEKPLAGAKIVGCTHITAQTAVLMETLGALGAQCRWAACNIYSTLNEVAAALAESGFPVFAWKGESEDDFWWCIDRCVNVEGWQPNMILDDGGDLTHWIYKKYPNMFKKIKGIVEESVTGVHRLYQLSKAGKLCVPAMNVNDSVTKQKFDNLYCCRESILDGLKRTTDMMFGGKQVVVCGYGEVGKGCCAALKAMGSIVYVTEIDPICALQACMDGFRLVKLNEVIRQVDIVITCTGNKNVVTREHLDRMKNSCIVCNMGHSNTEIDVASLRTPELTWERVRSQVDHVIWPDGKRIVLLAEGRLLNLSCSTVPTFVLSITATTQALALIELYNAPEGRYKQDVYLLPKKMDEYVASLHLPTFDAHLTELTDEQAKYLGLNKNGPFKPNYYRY
UniProt Q9UHX3: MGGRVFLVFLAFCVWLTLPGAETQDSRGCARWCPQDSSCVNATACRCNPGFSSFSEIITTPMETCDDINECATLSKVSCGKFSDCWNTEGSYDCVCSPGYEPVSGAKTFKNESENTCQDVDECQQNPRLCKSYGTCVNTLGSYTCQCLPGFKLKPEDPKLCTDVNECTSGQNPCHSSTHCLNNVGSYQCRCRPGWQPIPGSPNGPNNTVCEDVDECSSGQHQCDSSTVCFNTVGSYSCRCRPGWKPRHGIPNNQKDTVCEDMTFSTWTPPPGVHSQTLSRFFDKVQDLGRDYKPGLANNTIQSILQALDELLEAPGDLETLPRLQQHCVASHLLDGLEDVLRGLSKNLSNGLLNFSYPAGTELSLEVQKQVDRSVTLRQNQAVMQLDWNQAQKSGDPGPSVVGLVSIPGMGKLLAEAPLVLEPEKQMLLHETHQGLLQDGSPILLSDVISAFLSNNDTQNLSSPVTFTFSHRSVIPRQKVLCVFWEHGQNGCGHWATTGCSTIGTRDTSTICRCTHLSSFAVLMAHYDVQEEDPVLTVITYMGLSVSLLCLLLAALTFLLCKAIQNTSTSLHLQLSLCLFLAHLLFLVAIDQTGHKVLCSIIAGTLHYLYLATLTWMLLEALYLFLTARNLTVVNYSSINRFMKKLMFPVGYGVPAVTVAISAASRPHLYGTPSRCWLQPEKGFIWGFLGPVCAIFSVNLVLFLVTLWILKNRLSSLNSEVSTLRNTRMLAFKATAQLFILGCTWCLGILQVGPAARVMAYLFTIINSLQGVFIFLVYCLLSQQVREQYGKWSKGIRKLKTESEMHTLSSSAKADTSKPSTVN
UniProt P61163, whole entry, looked up: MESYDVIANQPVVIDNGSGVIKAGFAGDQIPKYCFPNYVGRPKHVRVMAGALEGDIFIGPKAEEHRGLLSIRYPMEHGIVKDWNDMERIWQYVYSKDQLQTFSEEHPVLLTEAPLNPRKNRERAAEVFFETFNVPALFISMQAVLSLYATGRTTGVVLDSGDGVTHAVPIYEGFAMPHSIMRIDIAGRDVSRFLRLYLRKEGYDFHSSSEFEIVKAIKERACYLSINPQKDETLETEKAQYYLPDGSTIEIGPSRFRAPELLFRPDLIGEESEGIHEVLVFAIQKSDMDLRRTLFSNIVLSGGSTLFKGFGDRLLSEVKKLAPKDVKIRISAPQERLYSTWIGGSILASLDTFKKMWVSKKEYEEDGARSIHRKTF
UniProt P07311: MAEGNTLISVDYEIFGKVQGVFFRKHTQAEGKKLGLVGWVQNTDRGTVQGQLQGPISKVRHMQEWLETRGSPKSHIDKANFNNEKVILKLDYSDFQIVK
UniProt Q8N302: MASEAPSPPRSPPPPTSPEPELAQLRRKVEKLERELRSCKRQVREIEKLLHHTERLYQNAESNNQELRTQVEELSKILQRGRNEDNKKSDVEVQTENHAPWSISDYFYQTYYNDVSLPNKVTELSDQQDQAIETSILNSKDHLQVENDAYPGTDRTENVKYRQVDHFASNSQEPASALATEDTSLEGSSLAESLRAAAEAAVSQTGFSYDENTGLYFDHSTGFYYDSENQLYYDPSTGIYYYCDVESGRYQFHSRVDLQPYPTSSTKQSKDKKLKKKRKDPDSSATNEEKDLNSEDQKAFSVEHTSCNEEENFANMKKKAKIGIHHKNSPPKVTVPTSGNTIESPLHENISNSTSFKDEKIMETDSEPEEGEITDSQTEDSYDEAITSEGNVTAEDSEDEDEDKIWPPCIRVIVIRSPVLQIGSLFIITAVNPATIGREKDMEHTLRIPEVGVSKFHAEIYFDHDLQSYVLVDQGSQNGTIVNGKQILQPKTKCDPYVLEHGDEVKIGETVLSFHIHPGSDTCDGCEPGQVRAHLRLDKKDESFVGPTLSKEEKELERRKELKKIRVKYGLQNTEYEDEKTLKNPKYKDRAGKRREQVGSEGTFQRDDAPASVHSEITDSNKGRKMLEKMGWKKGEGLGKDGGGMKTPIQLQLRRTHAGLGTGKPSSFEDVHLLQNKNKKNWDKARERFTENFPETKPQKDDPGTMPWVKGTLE
UniProt Q9Y4W6: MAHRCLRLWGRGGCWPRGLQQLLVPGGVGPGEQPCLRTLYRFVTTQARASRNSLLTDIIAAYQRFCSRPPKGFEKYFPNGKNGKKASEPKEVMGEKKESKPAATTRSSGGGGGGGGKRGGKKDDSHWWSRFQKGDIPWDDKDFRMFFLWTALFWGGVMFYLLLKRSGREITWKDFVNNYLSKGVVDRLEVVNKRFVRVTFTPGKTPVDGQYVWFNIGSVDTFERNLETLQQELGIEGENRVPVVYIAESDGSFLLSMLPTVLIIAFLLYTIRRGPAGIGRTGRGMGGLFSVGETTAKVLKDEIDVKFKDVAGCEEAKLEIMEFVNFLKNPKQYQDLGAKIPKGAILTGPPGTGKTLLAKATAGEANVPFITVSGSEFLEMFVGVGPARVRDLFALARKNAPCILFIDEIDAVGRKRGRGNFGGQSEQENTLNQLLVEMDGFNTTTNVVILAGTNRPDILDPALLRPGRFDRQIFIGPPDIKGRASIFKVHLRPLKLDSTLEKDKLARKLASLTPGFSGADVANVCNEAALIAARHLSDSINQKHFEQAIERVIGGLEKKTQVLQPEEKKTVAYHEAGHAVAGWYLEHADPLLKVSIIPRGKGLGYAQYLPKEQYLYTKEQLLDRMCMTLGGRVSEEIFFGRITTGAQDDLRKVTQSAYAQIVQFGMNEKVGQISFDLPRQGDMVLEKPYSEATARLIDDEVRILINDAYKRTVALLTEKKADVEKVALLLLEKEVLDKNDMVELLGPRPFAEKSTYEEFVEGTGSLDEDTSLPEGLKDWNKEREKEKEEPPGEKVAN
UniProt Q96P47: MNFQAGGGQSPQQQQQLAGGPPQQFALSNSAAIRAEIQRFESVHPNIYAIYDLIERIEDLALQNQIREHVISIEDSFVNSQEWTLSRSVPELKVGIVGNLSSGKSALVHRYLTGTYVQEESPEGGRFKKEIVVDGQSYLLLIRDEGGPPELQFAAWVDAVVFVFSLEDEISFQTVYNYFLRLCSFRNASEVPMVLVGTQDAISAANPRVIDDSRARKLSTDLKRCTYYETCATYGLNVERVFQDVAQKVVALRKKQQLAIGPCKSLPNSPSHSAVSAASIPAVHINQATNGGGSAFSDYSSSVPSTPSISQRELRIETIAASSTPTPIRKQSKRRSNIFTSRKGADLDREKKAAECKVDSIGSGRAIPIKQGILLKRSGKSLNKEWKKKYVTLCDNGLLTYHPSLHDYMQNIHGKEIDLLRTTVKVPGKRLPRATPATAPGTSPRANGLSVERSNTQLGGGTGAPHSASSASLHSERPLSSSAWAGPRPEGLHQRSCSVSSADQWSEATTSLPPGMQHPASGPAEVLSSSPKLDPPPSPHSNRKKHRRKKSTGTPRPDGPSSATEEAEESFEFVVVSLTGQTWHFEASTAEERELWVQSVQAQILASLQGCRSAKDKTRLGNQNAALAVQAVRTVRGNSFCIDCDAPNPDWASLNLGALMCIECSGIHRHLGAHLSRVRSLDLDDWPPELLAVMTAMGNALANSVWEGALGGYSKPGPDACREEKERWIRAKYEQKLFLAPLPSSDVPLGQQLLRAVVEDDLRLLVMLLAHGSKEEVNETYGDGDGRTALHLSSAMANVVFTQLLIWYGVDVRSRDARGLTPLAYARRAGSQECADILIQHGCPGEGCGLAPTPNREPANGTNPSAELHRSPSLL
UniProt O14672: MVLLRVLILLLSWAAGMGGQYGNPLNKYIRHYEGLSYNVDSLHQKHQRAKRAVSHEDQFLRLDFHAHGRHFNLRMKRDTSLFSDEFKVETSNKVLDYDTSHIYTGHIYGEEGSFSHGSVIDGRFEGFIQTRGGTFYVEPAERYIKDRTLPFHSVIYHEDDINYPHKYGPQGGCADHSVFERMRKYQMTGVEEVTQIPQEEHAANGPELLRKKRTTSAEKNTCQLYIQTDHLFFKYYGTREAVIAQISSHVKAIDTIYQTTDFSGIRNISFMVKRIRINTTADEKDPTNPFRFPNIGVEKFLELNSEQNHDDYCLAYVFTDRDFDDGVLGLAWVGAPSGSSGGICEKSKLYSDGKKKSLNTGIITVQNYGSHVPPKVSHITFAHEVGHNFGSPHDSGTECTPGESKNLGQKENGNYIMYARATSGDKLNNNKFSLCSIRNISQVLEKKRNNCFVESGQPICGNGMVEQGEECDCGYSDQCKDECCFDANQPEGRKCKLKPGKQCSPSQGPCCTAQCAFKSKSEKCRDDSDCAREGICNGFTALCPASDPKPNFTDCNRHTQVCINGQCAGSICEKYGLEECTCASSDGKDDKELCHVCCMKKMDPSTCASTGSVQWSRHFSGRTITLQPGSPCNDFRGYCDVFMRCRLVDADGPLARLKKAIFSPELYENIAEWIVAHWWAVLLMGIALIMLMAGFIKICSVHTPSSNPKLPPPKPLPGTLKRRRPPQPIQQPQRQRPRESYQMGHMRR
UniProt P14621: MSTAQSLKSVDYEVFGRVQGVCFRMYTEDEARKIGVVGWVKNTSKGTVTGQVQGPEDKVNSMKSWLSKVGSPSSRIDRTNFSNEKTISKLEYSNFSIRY
UniProt P00568: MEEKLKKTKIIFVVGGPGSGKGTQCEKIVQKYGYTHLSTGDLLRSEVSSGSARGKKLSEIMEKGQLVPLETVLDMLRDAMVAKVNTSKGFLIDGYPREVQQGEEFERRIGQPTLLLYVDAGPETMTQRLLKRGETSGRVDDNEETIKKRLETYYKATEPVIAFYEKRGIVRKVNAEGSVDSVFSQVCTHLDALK

[1] = compound: Cc1nc(Nc2n[nH]c3c2CN(C(=O)N[C@H](CN(C)C)c2ccccc2)C3(C)C)c2sccc2n1
How it was run: as §1

dasatinib = compound: Cc1nc(Nc2ncc(C(=O)Nc3c(C)cccc3Cl)s2)cc(N2CCN(CCO)CC2)n1 [dasatinib]
How it was run: as §1

[2] = compound: Cc1ncc(-c2ccnc(Nc3ccc(S(C)(=O)=O)cc3)n2)n1C(C)C
How it was run: as §1

[3] = compound: Cn1cc(-c2ccc3c(c2)CCN3C(=O)Cc2cccc(C(F)(F)F)c2)c2c(N)ncnc21
How it was run: as §1

quisinostat = compound: Cn1cc(CNCC2CCN(c3ncc(C(=O)NO)cn3)CC2)c2ccccc21 [quisinostat]
How it was run: as §1

tipifarnib = compound: Cn1cncc1[C@@](N)(c1ccc(Cl)cc1)c1ccc2c(c1)c(-c1cccc(Cl)c1)cc(=O)n2C [tipifarnib]
How it was run: as §1

[4] = compound: NC(=O)Nc1cc(-c2cccc(F)c2)sc1C(=O)N[C@H]1CCCNC1
How it was run: as §1

[5] = compound: NC(=O)c1cnc(N[C@@H]2CCCC[C@@H]2N)nc1Nc1cccc(-n2nccn2)c1
How it was run: as §1

[6] = compound: NC1(c2ccc(-c3nc4ccn5c(=O)[nH]nc5c4cc3-c3ccccc3)cc2)CCC1
How it was run: as §1

Measured: log2 fold change

AKAP11 (UniProt Q9UKA4)
inactive: nilotinib -0.001 | [1] -0.06 | dasatinib -0.074 | [2] 0.188 | [3] 0.092 | quisinostat 0.012 | tipifarnib 0.022 | [4] 0.008 | [5] 0.014 | [6] -0.05

AK6 (UniProt Q9Y3D8)
inactive: nilotinib -0.013 | [1] 0.032 | dasatinib -0.028 | [2] -0.016 | [3] 0.04 | quisinostat 0.019 | tipifarnib -0.002 | [4] 0.072 | [5] -0.038 | [6] 0.1

ADD1 isoform 3 (UniProt P35611)
inactive: nilotinib 0.027 | [1] -0.005 | dasatinib 0.007 | [2] -0.017 | [3] -0.012 | quisinostat -0.016 | tipifarnib 0.019 | [4] 0.007 | [5] -0.015 | [6] 0.011

ADAR isoform 4 (UniProt P55265)
inactive: nilotinib 0.006 | [1] 0.012 | dasatinib -0.026 | [2] -0.027 | [3] 0.009 | quisinostat -0.114 | tipifarnib -0.009 | [4] 0.015 | [5] -0.009 | [6] 0.029

ACSS2 isoform 2 (UniProt Q9NR19)
inactive: nilotinib -0.012 | [1] 0.02 | dasatinib -0.025 | [2] -0.027 | [3] 0.023 | quisinostat -0.013 | tipifarnib 0.018 | [4] -0.013 | [5] 0.013 | [6] 0.028

AHCYL2 (UniProt Q96HN2)
inactive: nilotinib 0.065 | [1] -0.015 | dasatinib 0.175 | [2] 0.047 | [3] 0.091 | quisinostat -0.076 | tipifarnib 0.028 | [4] -0.024 | [5] -0.019 | [6] -0.011

AHSA1 (UniProt O95433)
inactive: nilotinib 0.006 | [1] -0.026 | dasatinib 0.012 | [2] 0.01 | [3] -0.021 | quisinostat -0.006 | tipifarnib 0.001 | [4] 0.009 | [5] 0.01 | [6] -0.03

ADGRE2 (UniProt Q9UHX3)
inactive: nilotinib -0.028 | [1] -0.052 | dasatinib 0.059 | [2] -0.025 | [3] -0.016 | quisinostat -0.044 | tipifarnib -0.038 | [4] 0.019 | [5] 0.008 | [6] 0.025

AFG1L (UniProt Q8WV93)
inactive: nilotinib -0.004 | [1] 0.03 | dasatinib 0.008 | [2] 0 | [3] 0 | quisinostat -0.044 | tipifarnib -0.034 | [4] -0.061 | [5] 0.035 | [6] 0.035

AK5 (UniProt Q9Y6K8)
inactive: nilotinib 0.012 | [1] 0.003 | dasatinib -0.007 | [2] -0.056 | [3] -0.009 | quisinostat 0.072 | tipifarnib 0.042 | [4] -0.015 | [5] 0.047 | [6] -0.044

ACTR1A (UniProt P61163)
inactive: nilotinib 0 | [1] 0.008 | dasatinib 0.003 | [2] 0.001 | [3] -0.01 | quisinostat 0.056 | tipifarnib -0.014 | [4] -0.004 | [5] -0.016 | [6] -0.049

ACTB, A0A2R8Y793
inactive: nilotinib 0.031 | [1] -0.012 | dasatinib 0.004 | [2] 0.014 | [3] -0.008 | quisinostat -0.012 | tipifarnib 0.004 | [4] 0.056 | [5] 0.005 | [6] -0.01

ADAM17 (UniProt P78536)
inactive: nilotinib -0.093 | [1] -0.151 | dasatinib -0.032 | [2] 0.021 | [3] 0.054 | quisinostat 0.01 | tipifarnib 0.039 | [4] 0.002 | [6] -0.012

ACYP1 (UniProt P07311)
inactive: nilotinib -0.014 | [1] 0.019 | dasatinib 0.022 | [2] -0.028 | [3] 0.014 | quisinostat 0.024 | tipifarnib 0.019 | [4] -0.029 | [5] -0.013 | [6] 0.039

ADCY7 (UniProt P51828)
inactive: nilotinib 0.111 | [1] 0.02 | dasatinib 0.079 | [2] -0.064 | [3] 0.063 | tipifarnib -0.178 | [6] 0.213

ADPGK (UniProt Q9BRR6)
inactive: nilotinib -0.02 | [1] -0.045 | dasatinib 0.026 | [2] -0.051 | [3] 0.07 | quisinostat 0.118 | tipifarnib -0.057 | [4] -0.009 | [5] -0.007 | [6] 0.04

ACTR2 (UniProt P61160)
inactive: nilotinib -0.001 | [1] -0.009 | dasatinib -0.013 | [2] -0.005 | [3] 0.002 | quisinostat 0.003 | tipifarnib 0.032 | [4] -0.004 | [5] -0.033 | [6] -0.007

AGGF1 (UniProt Q8N302)
inactive: nilotinib 0.02 | [1] 0.055 | [2] 0.087 | quisinostat -0.041 | tipifarnib -0.06 | [4] -0.007 | [5] 0.075 | [6] 0.024

ADD2 isoform 9 (UniProt P35612)
inactive: nilotinib 0.174 | [1] -0.108 | dasatinib -0.002 | [2] 0.492 | [3] -0.085 | tipifarnib -0.059 | [5] -0.184 | [6] 0.353

ACTR8 (UniProt Q9H981)
inactive: nilotinib -0.032 | [1] -0.055 | dasatinib -0.339 | [2] 0.036 | [3] 0.09 | tipifarnib -0.114 | [5] 0.035 | [6] 0.17

ADAMTSL4 isoform 3 (UniProt Q6UY14)
inactive: nilotinib 0.018 | [1] -0.064 | dasatinib -0.041 | [2] 0.015 | [3] -0.085 | quisinostat -0.033 | tipifarnib -0.036 | [4] 0.042 | [5] -0.055 | [6] -0.021

AFG3L2 (UniProt Q9Y4W6)
inactive: nilotinib -0.061 | [1] -0.018 | dasatinib -0.059 | [2] -0.029 | [3] 0.031 | quisinostat 0.059 | tipifarnib -0.006 | [4] 0.029 | [5] 0.008 | [6] 0.009

Two successive records out of the list so far, quoted:
ACSS2 isoform 2 (UniProt Q9NR19)
inactive: nilotinib -0.012 | [1] 0.02 | dasatinib -0.025 | [2] -0.027 | [3] 0.023 | quisinostat -0.013 | tipifarnib 0.018 | [4] -0.013 | [5] 0.013 | [6] 0.028

AHCYL2 (UniProt Q96HN2)
inactive: nilotinib 0.065 | [1] -0.015 | dasatinib 0.175 | [2] 0.047 | [3] 0.091 | quisinostat -0.076 | tipifarnib 0.028 | [4] -0.024 | [5] -0.019 | [6] -0.011

Next entries follow:

AGAP3 isoform 4 (UniProt Q96P47)
inactive: nilotinib 0.037 | [1] -0.007 | dasatinib -0.025 | [2] -0.088 | [3] 0.027 | quisinostat -0.032 | tipifarnib 0.022 | [4] 0.032 | [5] 0.001 | [6] 0.005

ADSS1 (UniProt Q8N142)
inactive: nilotinib -0.061 | [1] -0.043 | dasatinib 0.029 | [2] 0.032 | [3] -0.019 | quisinostat -0.006 | tipifarnib 0.049 | [4] -0.002 | [5] 0.029 | [6] 0.009

ADAM10 (UniProt O14672)
inactive: nilotinib 0.051 | [1] -0.046 | dasatinib 0 | [2] 0.053 | [3] -0.004 | quisinostat -0.055 | tipifarnib 0.017 | [4] 0.002 | [5] 0.016 | [6] 0.022

ADO (UniProt Q96SZ5)
inactive: nilotinib -0.054 | [1] -0.074 | dasatinib 0.047 | [2] 0.002 | [3] -0.003 | quisinostat 0.008 | tipifarnib 0.045 | [4] -0.017 | [5] 0.017 | [6] -0.019

AKR1A1 (UniProt P14550)
inactive: nilotinib 0.013 | [1] -0.029 | dasatinib -0.009 | [2] 0.019 | [3] -0.01 | quisinostat -0.017 | tipifarnib 0.021 | [4] 0.003 | [5] 0.008 | [6] 0

ACYP2 (UniProt P14621)
inactive: nilotinib -0.008 | [1] -0.079 | [2] 0.097 | quisinostat -0.047 | tipifarnib 0.009 | [4] -0.009 | [5] -0.026 | [6] 0.019

ACTL8 (UniProt Q9H568)
inactive: nilotinib -0.108 | [1] -0.005 | dasatinib 0.042 | [2] -0.073 | [3] -0.054 | quisinostat -0.047 | tipifarnib 0.085 | [4] 0.005 | [5] -0.056 | [6] 0.005

ACSL5 isoform 3 (UniProt Q9ULC5)
inactive: nilotinib -0.023 | [1] 0.029 | dasatinib -0.037 | [2] 0.045 | [3] -0.047 | quisinostat 0.003 | tipifarnib -0.043 | [4] 0.022 | [5] -0.036 | [6] 0.008

AK1 (UniProt P00568)
inactive: nilotinib 0.023 | [1] 0.008 | dasatinib -0.038 | [2] 0.015 | [3] 0.011 | quisinostat 0.118 | tipifarnib 0.056 | [4] 0.004 | [5] 0.003 | [6] 0.009
